Results as given in patent US11478478B2, “2,3-disubstituted 1-acyl-4-amino-1,2,3,4-tetrahydroquinoline derivatives and their use as bromodomain inhibitors” (GLAXOSMITHKLINE INTELLECTUAL PROPERTY (NO.2) LIMITED, priority 2013, dated 2022).
Some results were stated once for a whole list of compounds, not compound by compound.

Biological target: T1, BRD4 BD2 (Homo sapiens, UniProt O60885, Y97A)
T1 construct: BRD4 (1-477) (Y97A) and (Y390A); made in house; host or cells: E. coli (pET15b vector)
Assay: TR-FRET binding assay, BRD4 BD2 (BD1-mutated protein)
Conditions: BRD4 BD2 over BRD4 BD1; ≥1 log unit = at least 10 fold, ≥2 log unit = at least 100 fold selective
Procedure: Time Resolved Fluorescence Resonance Energy Transfer (TR-FRET) Assay Binding was assessed using a time resolved fluorescent resonance energy transfer binding assay. This utilises a 6 His purification tag at the N-terminal of the proteins as an epitope for an anti-6 His antibody labeled with Europium chelate (PerkinElmer AD0111) allowing binding of the Europium to the proteins which acts as the donor fluorophore. A small molecule, high affinity binder of the bromodomains BRD2, BRD3, BRD4 and BRDT has been labeled with Alexa Fluor647 (Reference Compound X) and this acts as the acceptor in the FRET pair.
In the absence of a competing compound, excitation of the Europium causes the donor to emit at λ618 nm which excites the Alexa labelled bromodomain binding compound leading to an increased energy transfer that is measurable at λ647 nM. In the presence of a sufficient concentration of a compound that can bind these proteins, the interaction is disrupted leading to a quantifiable drop in fluorescent resonance energy transfer.
The binding of the compounds of formula (I) to Bromodomains BRD2, BRD3, BRD4 and BRDT was assessed using mutated proteins to detect differential binding to either Binding Domain 1 (BD1) or Binding Domain 2 (BD2) on the bromodomain. […]

| SMILES | Selectivity = BRD4 BD2 pIC50 − BRD4 BD1 pIC50 [log unit] |
| --- | --- |
| CC(=O)N1c2ccc(C3=CCNCC3)cc2[C@H](Nc2ccc(C#N)cc2)[C@@H](C)[C@@H]1C1CC1 (racemic) [Example 192, rac-4-(((2S,3R,4R)-1-acetyl-2-cyclopropyl-3-methyl-6-(1,2,3,6-tetrahydropyridin-4-yl)-1,2,3,4-tetrahydroquinolin-4-yl)amino)benzonitrile] | ≥ 2 |
| CC(=O)N1c2ccc(C3=CCNCC3)cc2[C@H](Nc2cccc(C)n2)[C@@H](C)[C@@H]1C1CC1 (single isomer, unassigned) [Example 189a] | ≥ 2 |
